This assay concerns the target HA-NSP9 (SARS-CoV-2 non-structural protein 9) (SARS-CoV-2) (UniProt P0DTD1). Kind of assay: affinity purification with mass spectrometry.

Results are given in words; binding and its absence hold for the method and conditions named. In cells and extracts the contact can be indirect. Here binding means that the protein was enriched with, or labelled near, the bait; the list need not be complete.

The text below walks through data of article PMC10580797.

B1: Midline 1 (MID1), found by mass spectrometry with NSP9 (enzyme, UniProt O15344 1-667)
chain: METLESELTCPICLELFEDPLLLPCAHSLCFNCAHRILVSHCATNESVESITAFQCPTCRHVITLSQRGLDGLKRNVTLQNIIDRFQKASVSGPNSPSETRRERAFDANTMTSAEKVLCQFCDQDPAQDAVKTCVTCEVSYCDECLKATHPNKKPFTGHRLIEPIPDSHIRGLMCLEHEDEKVNMYCVTDDQLICALCKLVGRHRDHQVAALSERYDKLKQNLESNLTNLIKRNTELETLLAKLIQTCQHVEVNASRQEAKLTEECDLLIEIIQQRRQIIGTKIKEGKVMRLRKLAQQIANCKQCIERSASLISQAEHSLKENDHARFLQTAKNITERVSMATASSQVLIPEINLNDTFDTFALDFSREKKLLECLDYLTAPNPPTIREELCTASYDTITVHWTSDDEFSVVSYELQYTIFTGQANVVSLCNSADSWMIVPNIKQNHYTVHGLQSGTKYIFMVKAINQAGSRSSEPGKLKTNSQPFKLDPKSAHRKLKVSHDNLTVERDESSSKKSHTPERFTSQGSYGVAGNVFIDSGRHYWEVVISGSTWYAIGLAYKSAPKHEWIGKNSASWALCRCNNNWVVRHNSKEIPIEPAPHLRRVGILLDYDNGSIAFYDALNSIHLYTFDVAFAQPVCPTFTVWNKCLTIITGLPIPDHLDCTEQLP
Take B1: the binding result is given as “binds”.
